Results are given in words; binding and its absence hold for the method and conditions named.
Biological target: T1, S. cerevisiae eIF4E (S. cerevisiae, UniProt P07260 1-213)
T1 construct: eIF4E of S. cerevisiae; 15N isotope labelled; m7GTP added to 250 μM in the NMR sample; source: E. coli BL21-star, purified (nickel resin, TEV cleavage, m7G cap resin)
T1 sequence (looked up): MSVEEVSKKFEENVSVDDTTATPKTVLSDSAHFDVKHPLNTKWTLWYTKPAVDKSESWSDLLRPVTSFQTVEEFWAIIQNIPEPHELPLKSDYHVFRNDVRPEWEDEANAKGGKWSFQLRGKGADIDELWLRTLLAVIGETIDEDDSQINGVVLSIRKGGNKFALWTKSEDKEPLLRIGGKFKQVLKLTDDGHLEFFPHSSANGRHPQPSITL
Experiment: NMR titration; 15N HSQC of 200 μM 15N eIF4E with 250 μM m7GTP, peptide added to 1 mM; 50 mM phosphate pH 6.5, 50 mM KCl, 10% D2O, 298 K, 900 MHz; both purified

binding: no binding (tested: 1 mM)
Binder: ASKGRYIPPHLRNREATKGAA [DDX3X 33–51 peptide]
